PubChem BioAssay AID1224828 – NIAID | 2016

Screen: 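Knock-downs that increase or decrease LPS-induced p65 nuclear translocation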 (primary screen)
Cell system: mouse RAW264.7 G9 macrophage reporter cells (GFP-p65, Tnf promoter-mCherry)
Reagents: siRNA pool against mouse genes, 100 nM
Timing: 2 days siRNA transfection, then 40 min LPS before fixation
Treatment: LPS (Salmonella minnesota R595) at 10 ng/ml
Read-out: 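Imaged p65 nuclear translocation ratio, normalised to the plate median, converted to robust z-scores and averaged across two replicates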
Direction: p65 translocation robust z-score: higher = more nuclear NF-kappaB p65 after LPS than the plate median; nuclear/cytoplasmic p65 ratio: higher = more nuclear NF-kappaB p65
Active means: 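Called active when z exceeds 3.3 or falls under -1.56 (median of Tlr4 controls), giving activity score of at least 50; no calls for control wells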
Meaning of the calls: active = hit (p65 shift raised or lowered); inactive = no clear change
In all, the deposit lists about 17,000 reagents; below is an unselected part. Of all reagents, 762 (4.5%) are marked active. 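Active calls include both raised and lowered p65 entry, mostly lowered; wells with fewer than 50 cells lack a z-score.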 The raw values are shown without normalisation. Unmarked entries are inactive. Reagents against one gene are numbered here. A reagent listed more than once was tested more than once; the source does not tell the runs apart. Reagent sequences are not shown.

target | reagent no. | p65 translocation robust z-score | nuclear/cytoplasmic p65 ratio, rep 1 | nuclear/cytoplasmic p65 ratio, rep 2 | low cell count flag
Tmem131 | 1 | 0.79 | 1.71 | 1.63 | enough cells to score
Wdr83 | 1 | – | 3.91 | 1.39 | fewer than 50 cells per well; well left out of scoring
Dph1 | 1 | 0.21 | 1.54 | 1.35 | enough cells to score
Iqcb1 | 1 | 1.07 | 1.49 | 1.78 | enough cells to score
Pex16 | 1 | -0.72 | 1.34 | 1.33 | enough cells to score
Tsx | 1 | – | 1.63 | 1.36 | fewer than 50 cells per well; well left out of scoring
Or52n3 | 1 | – | 1.45 | 1.21 | fewer than 50 cells per well; well left out of scoring
Smim7 | 1 | -0.23 | 1.34 | 1.57 | enough cells to score
4921517D22Rik | 1 | – | 1.5 | 1.14 | fewer than 50 cells per well; well left out of scoring
Prl8a2 | 1 | 0.92 | 1.5 | 1.56 | enough cells to score
Jun | 1 | 0.08 | 1.47 | 1.41 | enough cells to score
Eme1 | 1 | 0.19 | 1.51 | 1.51 | enough cells to score
Rab9 | 1 | -0.29 | 1.5 | 1.45 | enough cells to score
Hycc1 | 1 | 1.84 | 1.87 | 1.45 | enough cells to score
Agpat1 | 1 | -0.48 | 1.57 | 1.53 | enough cells to score
H2bc21 | 1 | – | 1.08 | 1.36 | fewer than 50 cells per well; well left out of scoring
Phyh | 1 | -0.4 | 1.42 | 1.38 | enough cells to score
Rnf31 | 1 | 2.28 | 1.76 | 1.44 | enough cells to score
Cdk2ap1 | 1 | 0.56 | 1.6 | 1.39 | enough cells to score
Or4d6 | 1 | -1.13 | 1.47 | 1.24 | enough cells to score
Nudt3 | 1 | 1.93 | 1.99 | 1.83 | enough cells to score
Zfp1 | 1 | -0.12 | 1.43 | 1.21 | enough cells to score
Cenpq | 1 | – | 1.16 | 1.23 | fewer than 50 cells per well; well left out of scoring
Zfp772 | 1 | 0.76 | 1.72 | 1.94 | enough cells to score
Gpalpp1 | 1 | – | 1.55 | 1.49 | fewer than 50 cells per well; well left out of scoring
Vmn1r239-ps | 1 | 0.85 | 1.52 | 1.31 | enough cells to score
Sox11 | 1 | -0.68 | 1.37 | 1.12 | enough cells to score
Grk1 | 1 | 1.76 | 2.04 | 1.55 | enough cells to score
Grk1 | 1 | – | 1.56 | 1.54 | fewer than 50 cells per well; well left out of scoring
Kcnab1 | 1 | -1.41 | 1.28 | 1.09 | enough cells to score
Inpp4b | 1 | -0.4 | 1.41 | 1.34 | enough cells to score
Strbp | 1 | – | 1.37 | 1.15 | fewer than 50 cells per well; well left out of scoring
Strbp | 2 | 1.15 | 1.4 | 1.74 | enough cells to score

Next part (8 carried over from the part before).
target | reagent no. | p65 translocation robust z-score | nuclear/cytoplasmic p65 ratio, rep 1 | nuclear/cytoplasmic p65 ratio, rep 2 | low cell count flag
Vmn1r239-ps | 1 | 0.85 | 1.52 | 1.31 | enough cells to score
Sox11 | 1 | -0.68 | 1.37 | 1.12 | enough cells to score
Grk1 | 1 | 1.76 | 2.04 | 1.55 | enough cells to score
Grk1 | 1 | – | 1.56 | 1.54 | fewer than 50 cells per well; well left out of scoring
Kcnab1 | 1 | -1.41 | 1.28 | 1.09 | enough cells to score
Inpp4b | 1 | -0.4 | 1.41 | 1.34 | enough cells to score
Strbp | 1 | – | 1.37 | 1.15 | fewer than 50 cells per well; well left out of scoring
Strbp | 2 | 1.15 | 1.4 | 1.74 | enough cells to score
Tmie | 1 | – | 1.31 | 1.17 | fewer than 50 cells per well; well left out of scoring
Or5b98 | 1 | 0.76 | 1.72 | 1.53 | enough cells to score
Ndufs2 | 1 | 0.67 | 1.53 | 1.43 | enough cells to score
Bace2 | 1 | 0.98 | 1.68 | 2.06 | enough cells to score
Jmjd4 | 1 | -0.25 | 1.47 | 1.57 | enough cells to score
Rnf181 | 1 | 0.74 | 1.5 | 1.48 | enough cells to score
Vegfd | 1 | 0.17 | 1.45 | 1.4 | enough cells to score
Slc26a5 | 1 | 0.1 | 1.42 | 1.2 | enough cells to score
Tmem41b | 1 | 0.54 | 1.56 | 1.65 | enough cells to score
Kdr | 1 | 0.04 | 1.66 | 1.41 | enough cells to score
Stx2 | 1 | -2.26 (active) | 1.22 | 1.07 | enough cells to score
Or5a1 | 1 | – | 1.7 | 1.32 | fewer than 50 cells per well; well left out of scoring
Or6c212 | 1 | – | 1.42 | 1.47 | fewer than 50 cells per well; well left out of scoring
Hspa1l | 1 | -0.4 | 1.34 | 1.37 | enough cells to score
Kcnq5 | 1 | 0.52 | 1.58 | 1.42 | enough cells to score
Trpm6 | 1 | 0.54 | 1.74 | 1.48 | enough cells to score
Abca6 | 1 | 0.18 | 1.6 | 1.75 | enough cells to score
Dynlt3 | 1 | – | 1.15 | 0.985 | fewer than 50 cells per well; well left out of scoring
Akr1c14 | 1 | -0.09 | 1.55 | 1.53 | enough cells to score
Ppl | 1 | – | 1.56 | 1.29 | fewer than 50 cells per well; well left out of scoring
Slc39a6 | 1 | – | 1.41 | 1.5 | fewer than 50 cells per well; well left out of scoring
Ferd3l | 1 | -0.49 | 1.47 | 1.44 | enough cells to score
Rnf11 | 1 | – | 1.23 | 1.03 | fewer than 50 cells per well; well left out of scoring
Matn4 | 1 | -0.92 | 1.51 | 1.47 | enough cells to score
Gpn1 | 1 | -0.72 | 1.23 | 1.24 | enough cells to score
Pcp4 | 1 | 0.28 | 1.46 | 1.29 | enough cells to score
